Experimental findings from US20190201449 are described below.

For one data set, the system named is PU.1/HAF1. Put plainly: binding assay. As to conditions: bound in vitro and in vivo; site mutation lowers promoter activity 35-50%; protein in an extract.
Data set [1] addresses PU.1 (SPI1) (UniProt P17947). Put plainly: EMSA. For orientation: Mobility shift assays separate free from complexed probe on a gel.
The target of data set [2] is PU.1 (SPI1) (UniProt P17947). Put plainly: binding assay.
A further data set relates to AP-1 (c-Fos, c-Jun). Briefly: binding assay. The following applies: ChIP, HL-60 cells; p40-PU.1 region as control; protein in cells; protein details: endogenous in HL-60 cells.
The test system of data set [3] is AP-1 (Jun and Fos family proteins). Put plainly: binding assay. The following applies: HL-60 nuclear extract, in vitro binding; protein in an extract; protein details: HL-60 nuclear extract.
The next data set deals with Sp1/Sp3. Briefly: binding assay. The following applies: bound in vitro and in vivo; site mutation lowers promoter activity 35-50%; protein in an extract.
Data set [4] has as its target PU.1 (SPI1) (UniProt P17947). Put plainly: footprint. The following applies: HL-60 nuclear extract 5-40 ug; protected -37 to -53; protein in an extract; protein details: endogenous PU.1 in THP-1 or HL-60 nuclear extract.

Results from cells or extracts need not show a direct contact. For part of these data: The exact form of at least one protein or probe is not confirmed.

As for “GTGGGGACATTTCCTGATGCATTTTGC (double strand) [p67phox PU.1/HAF1 site (-182)]”, in the data set on PU.1/HAF1, the binding result is given as “binds”. For the sequence “GGGCTCGAGGACTTCCTCTTTCCAGTGCATTTAA (double strand) [p47-PU.1-48 (46G wild type)]”, the binding result with PU.1 (SPI1) [1] (THP-1 nuclear extract, probe is an underlined part of the listed construct sequence, protein in an extract, protein details: endogenous PU.1 in THP-1 or HL-60 nuclear extract) is listed as “binds”. Take “GAGGGTCCACTTCCTCAATTTCTGTG (double strand) [p40phox PU.1a]”: the binding result in the data set with PU.1 (SPI1) [2] (ChIP, HL-60 cells, PU.1 sites occupied in vivo, not resolved individually, protein in cells, protein details: endogenous in HL-60 cells) is given as “binds”. With “GGTAGGGTTATGAGTCAGTTGCCAAA (double strand) [p67phox AP-1 site (-210, intron 1)]”, the binding result is recorded as “binds” with AP-1 (c-Fos, c-Jun) and “binds” in data set [3]. Consider “CTCAGAATAGGGGAGGGGCAGGACA (double strand) [p67phox Sp1/Sp3 site (-694)]”, for which the binding result in the data set with Sp1/Sp3 is “binds”. As to “AAAGAGGAAGTCGCTT (double strand) [p47phox promoter footprint region (lower strand)]”, the binding result in the data set with PU.1 (SPI1) [1] (in vitro synthesized PU.1 binds element specifically, mutation of site abolished binding, method not given, synthetic protein, protein details: in vitro synthesized) is “binds”; in the data set with PU.1 (SPI1) [4], “binds”. As to “GCTGATGTACTTCCTCTCTCCTCCAC (double strand) [p67phox PU.1 site (-289)]”, the binding result in the data set with PU.1 (SPI1) [2] (bound in vitro and in vivo, site mutation lowers promoter activity 35-50%, protein in an extract, protein details: endogenous PU.1 in THP-1 or HL-60 nuclear extract) is recorded as “binds”.
